Data: the supplement of paper PMC7752906
Counter-ions that a name gives are not always drawn. This is one part of the list. This data set is noisy: repeats of one test often differ as much as different tests do.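 Test system: Schistosoma mansoni schistosomula, roughly 40 per well, imaged in bright field over time and compared with wells given 0.1% DMSO. Distance read-out: the paper calls a drug a hit when its Mahalanobis distance is at least 2.47, three standard deviations above the DMSO control mean. Degeneracy is the share of worms classified opaque.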

The compounds below were run on Schistosoma mansoni schistosomula (assay: Mahalanobis distance of static-rate-frequency phenotype descriptors from DMSO controls (dimensionless); higher = stronger phenotypic change versus DMSO). Details: 10 µM; 72 h.

Mahalanobis distance, active:
N[C@@H](Cc1c[nH]c2ccccc12)C(=O)O [Tryptophan] 2.89
CC(O)Cn1cnc2c1c(=O)n(C)c(=O)n2C (stereo not given) [Proxyphylline] 2.95
COc1cccc2c1C(=O)c1c(O)c3c(c(O)c1C2=O)C[C@@](O)(C(C)=O)C[C@@H]3O[C@H]1C[C@H](N)[C@H](O)[C@H](C)O1 [Daunorubicin] 4.22
C=C[C@H]1CN2CC[C@H]1C[C@H]2[C@H](O)c1ccnc2ccc(OC)cc12 [Quinine Sulfate] 2.69
Nc1cc(N2CCCCC2)nc(N)[n+]1[O-] [Minoxidil] 3.39
Cc1nc2ccccn2c(=O)c1CCN1CCC(C(=O)c2ccc(F)cc2)CC1 [Pirenperone] 3.31
O=C(CCNNC(=O)c1ccncc1)NCc1ccccc1 [Nialamide] 7.76
CC(C)OC(=O)C(C)(C)Oc1ccc(C(=O)c2ccc(Cl)cc2)cc1 [Fenofibrate] 2.78
C[C@@H](O[C@H]1OCCN(Cc2n[nH]c(=O)[nH]2)[C@H]1c1ccc(F)cc1)c1cc(C(F)(F)F)cc(C(F)(F)F)c1 [Aprepitant] 2.6
COC(=O)N[C@H](C(=O)N[C@@H](Cc1ccccc1)[C@@H](O)CN(Cc1ccc(-c2ccccn2)cc1)NC(=O)[C@@H](NC(=O)OC)C(C)(C)C)C(C)(C)C [Atazanavir] 3.22
CC1(C)O[C@@H]2C[C@H]3[C@@H]4CCC5=CC(=O)CC[C@]5(C)[C@@]4(F)[C@@H](O)C[C@]3(C)[C@]2(C(=O)CCl)O1 [Halcinonide] 3.13
Cc1cc(C)cc(OCC2CNC(=O)O2)c1 (stereo not given) [Metaxalone] 2.98
O=C(NCCN1CCOCC1)c1ccc(Cl)cc1 [Moclobemide] 4.74
CCN1CCCC(OC(=O)C(c2ccccc2)c2ccccc2)C1 (stereo not given) [Piperidolate Hydrochloride] 3.22
Nc1nc(N)c2nc(CNc3ccc(C(=O)N[C@@H](CCC(=O)O)C(=O)O)cc3)cnc2n1 [Aminopterin] 3.26
CC(C(=O)O)c1cccc(C(=O)c2ccccc2)c1 (stereo not given) [Ketoprofen] 3.81

Mahalanobis distance, inactive:
CC[C@@H]1C(=O)OC[C@@H]1Cc1cncn1C [Pilocarpine] 1.75
CN1C(=O)CC[C@H]1c1cccnc1 [Cotinine] 2.05
Cc1c(NC(=O)c2cccnc2)c(=O)n(-c2ccccc2)n1C [Nifenazone] 1.94
NC(=O)CCCCC1CCSS1 (stereo not given) [Lipoamide] 1.69
C=C(C)[C@H]1CC=C(C)CC1 [D-limonene] 2.18
O=C(OOC(=O)c1ccccc1)c1ccccc1 [Benzoyl Peroxide] 1.56
CC(=O)NS(=O)(=O)c1ccc(N)cc1 [Sulfacetamide] 1.79
C=CC1=C(C(=O)O)N2C(=O)[C@@H](NC(=O)/C(=N\O)c3csc(N)n3)[C@H]2SC1 [cefdinir] 2.05
OCc1ccccc1O[C@@H]1O[C@H](CO)[C@@H](O)[C@H](O)[C@H]1O [Salicin] 1.51
O=c1oc2c(O)c(O)cc3c(=O)oc4c(O)c(O)cc1c4c23 [Ellagic Acid] 1.86
O=c1n(CCCN2CCN(c3cccc(Cl)c3)CC2)nc2ccccn12 [Trazodone] 1.11
CC(=O)NCCCCCC(=O)O [Acexamic Acid] 2.02
O=C(O)c1cc(=O)[nH]c(=O)[nH]1 [Orotic Acid] 1.54
C=C[C@H]1CN2CC[C@H]1C[C@H]2[C@H](O)c1ccnc2ccc(OC)cc12 [Quinine] 2.02
CC1(C)S[C@@H]2[C@H](NC(=O)[C@H](N)c3ccccc3)C(=O)N2[C@H]1C(=O)O [Ampicillin Sodium] 1.71
CCC(NC(C)C)C(O)c1ccc(O)c2[nH]c(=O)ccc12 (stereo not given) [Procaterol Hcl Hemihydrate] 2.16
O=C(O)c1ccccc1OP(=O)(O)O [Fosfosal] 2.25
C/C=C(/C(=C/C)c1ccc(O)cc1)c1ccc(O)cc1 [Dienestrol] 1.93
Cc1ncc([N+](=O)[O-])n1CC(C)O (stereo not given) [Secnidazole] 1.46
COc1ccc2cc([C@H](C)C(=O)O)ccc2c1 [Naproxen] 1.54
CCCN(CCC)CCc1cccc2c1CC(=O)N2 [Ropinirole Hydrochloride] 1.93
C/C=C/c1ccc(OC)cc1 [Anethole] 0.986
CC(=O)O[C@H]1C(=O)[C@@]2(C)[C@H]([C@H](OC(=O)c3ccccc3)[C@]3(O)C[C@H](OC(=O)[C@H](O)[C@@H](NC(=O)c4ccccc4)c4ccccc4)C(C)=C1C3(C)C)[C@]1(OC(C)=O)CO[C@@H]1C[C@@H]2O [Taxol, Paclitaxel] 2.46
NC(=O)c1cnccn1 [Pyrazinamide] 2.01
CCCCC[C@H](O)/C=C/[C@H]1[C@H](O)CC(=O)[C@@H]1C/C=C\CCCC(=O)O [Dinoprostone] 2.27
CCOC(=S)SSC(=S)OCC [Dixanthogen] 1.14
Cc1cc2c(s1)Nc1ccccc1N=C2N1CCN(C)CC1 [Olanzapine] 1.33
CC(N)CCCC(C)(C)O (stereo not given) [Heptaminol Hydrochloride] 1.89
CC(=O)N(c1onc(C)c1C)S(=O)(=O)c1ccc(N)cc1 [Sulfisoxazole Acetyl] 2.09
O=C(O)c1cc(/N=N/c2ccc(S(=O)(=O)Nc3ccccn3)cc2)ccc1O [Sulfasalazine] 1.39
CCOc1ccc2nc(S(N)(=O)=O)sc2c1 [Ethoxzolamide] 1.64
O=C(O)c1ccccc1O [Salicylic Acid] 2.08
CC(C)n1c(/C=C/C(O)CC(O)CC(=O)O)c(-c2ccc(F)cc2)c2ccccc21 (stereo not given) [fluvastatin] 2.32
CCCCNc1cc(C(=O)O)cc(S(N)(=O)=O)c1Oc1ccccc1 [Bumetanide] 1.6
NCCCC(O)(P(=O)(O)O)P(=O)(O)O [Alendronate Sodium] 2.07
CNC[C@H](O)[C@@H](O)[C@H](O)[C@H](O)CO [Meglumine] 1.34
Cc1ccnc(NS(=O)(=O)c2ccc(N)cc2)n1 [Sulfamerazine] 1.61
NC(=O)OCC(COC(N)=O)c1ccccc1 [Felbamate] 1.16
[O-][n+]1cccc(CO)c1 [Mepiroxol] 2.16
CC(=O)N[C@@H](CS)C(=O)O [Acetylcysteine] 1.39
CC(C)CCCC(C)N (stereo not given) [Octodrine] 1.55
CCN(CC)C(=O)/C(C#N)=C/c1cc(O)c(O)c([N+](=O)[O-])c1 [Entacapone] 1.11
C[C@@H]1O[C@@H](OC[C@H]2O[C@@H](Oc3c(-c4ccc(OCCO)c(OCCO)c4)oc4cc(OCCO)cc(O)c4c3=O)[C@H](O)[C@@H](O)[C@@H]2O)[C@H](O)[C@H](O)[C@H]1O [Troxerutin] 2.02
C[C@]12C=CC(=O)C=C1CC[C@H]1[C@@H]3C[C@@H](O)[C@](O)(C(=O)CO)[C@@]3(C)C[C@H](O)[C@@]12F [Triamcinolone] 1.94
CC(=O)O[C@H]1C[C@@H]2CC[C@@H]3[C@H](CC[C@@]4(C)[C@H]3C[C@H]([N+]3(C)CCCCC3)[C@@H]4OC(C)=O)[C@@]2(C)C[C@@H]1N1CCCCC1 [Vecuronium Bromide] 1.2
C[C@@H](O)[C@H]1C(=O)N2C(C(=O)O)=C(S[C@@H]3CN[C@H](C(=O)N(C)C)C3)[C@H](C)[C@H]12 [Meropenem] 1.43
CC1(C)C[C@@H]1C(=O)N/C(=C\CCCCSC[C@H](N)C(=O)O)C(=O)O [Cilastatin] 1.16
CO/N=C(\C(=O)N[C@@H]1C(=O)N2C(C(=O)[O-])=C(C[N+]3(C)CCCC3)CS[C@H]12)c1csc(N)n1 [Cefepime] 1.41
CNCCCC12CCC(c3ccccc31)c1ccccc12 [Maprotiline] 1.65
OC(c1cc(C(F)(F)F)nc2c(C(F)(F)F)cccc12)C1CCCCN1 (stereo not given) [mefloquine] 1.56
NCCNCCNCCN [Trientine Hydrochloride] 2.19
COc1c(C)c2c(c(O)c1C/C=C(\C)CCC(=O)O)C(=O)OC2 [Mycophenolic Acid] 2.28
O=C(Oc1ccccc1C(=O)O)c1ccccc1O [Salsalate] 1.91
Nc1c(CC(=O)O)cccc1C(=O)c1ccc(Br)cc1 [Bromfenac] 2.17
CN1C(=O)OC(C)(C)C1=O [Trimethadione] 2.29
CC(=O)CCCCn1c(=O)c2c(ncn2C)n(C)c1=O [Pentoxifylline] 1.61
CCOC(=O)c1ncn2c1CN(C)C(=O)c1cc(F)ccc1-2 [Flumazenil] 2.03
CCCC1O[C@@H]2C[C@H]3[C@@H]4CCC5=CC(=O)C=C[C@]5(C)[C@H]4[C@@H](O)C[C@]3(C)[C@]2(C(=O)CO)O1 (stereo not given in full) [Budesonide] 1.74
COc1ccc(C(=O)CC(=O)c2ccc(C(C)(C)C)cc2)cc1 [Avobenzone] 1.68

A draw from above in order of formula weight, smallest number first:
Mahalanobis distance, inactive:
[O-][n+]1cccc(CO)c1 [Mepiroxol] 2.16
O=C(O)c1ccccc1O [Salicylic Acid] 2.08
CN1C(=O)OC(C)(C)C1=O [Trimethadione] 2.29
CC(=O)NCCCCCC(=O)O [Acexamic Acid] 2.02
CNC[C@H](O)[C@@H](O)[C@H](O)[C@H](O)CO [Meglumine] 1.34
CC[C@@H]1C(=O)OC[C@@H]1Cc1cncn1C [Pilocarpine] 1.75
O=C(O)c1ccccc1OP(=O)(O)O [Fosfosal] 2.25
COc1ccc2cc([C@H](C)C(=O)O)ccc2c1 [Naproxen] 1.54
CCOC(=S)SSC(=S)OCC [Dixanthogen] 1.14
C/C=C(/C(=C/C)c1ccc(O)cc1)c1ccc(O)cc1 [Dienestrol] 1.93
OCc1ccccc1O[C@@H]1O[C@H](CO)[C@@H](O)[C@H](O)[C@H]1O [Salicin] 1.51
Cc1c(NC(=O)c2cccnc2)c(=O)n(-c2ccccc2)n1C [Nifenazone] 1.94
Cc1cc2c(s1)Nc1ccccc1N=C2N1CCN(C)CC1 [Olanzapine] 1.33
COc1c(C)c2c(c(O)c1C/C=C(\C)CCC(=O)O)C(=O)OC2 [Mycophenolic Acid] 2.28
C=C[C@H]1CN2CC[C@H]1C[C@H]2[C@H](O)c1ccnc2ccc(OC)cc12 [Quinine] 2.02
CC1(C)S[C@@H]2[C@H](NC(=O)[C@H](N)c3ccccc3)C(=O)N2[C@H]1C(=O)O [Ampicillin Sodium] 1.71
CCCCC[C@H](O)/C=C/[C@H]1[C@H](O)CC(=O)[C@@H]1C/C=C\CCCC(=O)O [Dinoprostone] 2.27
CCCCNc1cc(C(=O)O)cc(S(N)(=O)=O)c1Oc1ccccc1 [Bumetanide] 1.6
O=c1n(CCCN2CCN(c3cccc(Cl)c3)CC2)nc2ccccn12 [Trazodone] 1.11
OC(c1cc(C(F)(F)F)nc2c(C(F)(F)F)cccc12)C1CCCCN1 (stereo not given) [mefloquine] 1.56
C[C@@H](O)[C@H]1C(=O)N2C(C(=O)O)=C(S[C@@H]3CN[C@H](C(=O)N(C)C)C3)[C@H](C)[C@H]12 [Meropenem] 1.43
CC(=O)O[C@H]1C[C@@H]2CC[C@@H]3[C@H](CC[C@@]4(C)[C@H]3C[C@H]([N+]3(C)CCCCC3)[C@@H]4OC(C)=O)[C@@]2(C)C[C@@H]1N1CCCCC1 [Vecuronium Bromide] 1.2
C[C@@H]1O[C@@H](OC[C@H]2O[C@@H](Oc3c(-c4ccc(OCCO)c(OCCO)c4)oc4cc(OCCO)cc(O)c4c3=O)[C@H](O)[C@@H](O)[C@@H]2O)[C@H](O)[C@H](O)[C@H]1O [Troxerutin] 2.02
